# ± gives the standard deviation. Only a part is listed here, and it is no random draw. The uncertainty is large for many entries. The list shows a part of the results.
# Legend:
# [1] = system: MILI (PIWIL2) piRISC loaded with L1MC piRNA (26 nt); test: pre-steady-state target cleavage rate (min^-1); higher = faster piRNA-guided slicing of the target; conditions: guide: L1MC piRNA 5'p-UAACUAAAUACUAUGCAAGCUGUAGG
# Summary of the method: (§1)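 The pre-steady-state cleavage rate was obtained by Cleave-'n-Seq with a burst-and-steady-state fit. A transcribed, DNA-blocked target RNA library (0.1 nM) was mixed with 1 nM active affinity-purified piRISC carrying one synthetic guide, with or without 500 nM GTSF1 partner protein, in HEPES–potassium acetate buffer at 33 °C for 0–8 or 0–960 min. Uncleaved targets were sequenced and normalised to depth and to weakly complementary targets, with three trials pooled and k3 capped at 0.0001 min^-1.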
# [2] = system: MIWI (PIWIL1) piRISC loaded with L1MC piRNA (30 nt); test: as above; conditions: guide: L1MC piRNA 5'p-UAACUAAAUACUAUGCAAGCUGUAGGUCCU
# Summary of the method: as §1
# [3] = system: EfPiwi piRISC loaded with L1MC piRNA (26 nt); test: pre-steady-state target cleavage rate (min^-1); guide: L1MC piRNA 5'p-UAACUAAAUACUAUGCAAGCUGUAGG; MIWI and MILI are mouse PIWI proteins and EfPiwi is from a freshwater sponge; tags in brackets are library labels; higher = faster piRNA-guided slicing of the target
# Summary of the method: as §1
# [4] = auxiliary factor: none (no GTSF1)
# [5] = auxiliary factor: 500 nM mouse GTSF1
# [6] = auxiliary factor: 500 nM Ephydatia muelleri Gtsf1
# [7] = auxiliary factor: none (no Gtsf1)
Sequence,"pre-steady-state target cleavage rate [1, 4]","pre-steady-state target cleavage rate [2, 5]","pre-steady-state target cleavage rate [2, 4]","pre-steady-state target cleavage rate [3, 6]","pre-steady-state target cleavage rate [3, 7]","pre-steady-state target cleavage rate [1, 5]"
UCCUGGUACAGCUUGCAAUCUAUUUACAAA,0.00105 ± 0.0068,0.000775 ± 0.017,0.000492 ± 0.0099,0.000122 ± 0.036,0.000304 ± 0.022,
UCCUGGUACAGCUUGCAUAGUAUUCUAGUUA,,0.442 ± 0.092,0.00651 ± 0.0028,0.0044 ± 0.003,0.000329 ± 0.042,0.353 ± 0.088
UCCUGGAUGUCGUUGCAAAGUUUUUAGUUA,,0.000503 ± 0.017,0.000702 ± 0.0077,0.000244 ± 0.015,0.000202 ± 0.043,0.002 ± 0.0048
UCCUGGAUGAGCUUGGUUAGUAUUUAGAAA,0.00149 ± 0.0052,0.000968 ± 0.011,0.000906 ± 0.0086,0.000696 ± 0.008,0.000361 ± 0.019,
UCCUGGUACUCGUUGCAUAGUAUUUUCAAA,0.000813 ± 0.0089,0.00145 ± 0.011,0.000318 ± 0.014,0.00025 ± 0.025,0.000756 ± 0.011,
UCCUGGAUGUGCUACCAUAGUAUUUAGUAA,0.000798 ± 0.0079,0.000992 ± 0.011,0.000609 ± 0.0084,0.00172 ± 0.0041,0.000519 ± 0.015,
UCCUGGUAGUCCUUGCAUAGUAUUUUCAAA,0.00283 ± 0.0035,0.00197 ± 0.0056,0.00116 ± 0.0043,0.000464 ± 0.0086,0.000142 ± 0.061,
UCCUGGAUGUGCUAGCAUAGUAUAUAGUUA,0.00166 ± 0.0057,0.0106 ± 0.0042,0.00211 ± 0.0048,0.000443 ± 0.0094,0.000271 ± 0.028,
UCCUGGAUGUCGAUGCAUAAUAUUUAGUUA,0.00215 ± 0.0025,0.00262 ± 0.0052,0.000503 ± 0.014,0.000575 ± 0.0057,0.00019 ± 0.039,
UCCUGGAUCAGCUUGCUUAGUUUUUAGUUA,0.00306 ± 0.0033,0.0882 ± 0.01,0.0125 ± 0.0034,0.00518 ± 0.0042,0.000488 ± 0.016,
UCCUGCUACAGCUUGCAUUCUAUUUACAAA,0.000733 ± 0.0066,0.0158 ± 0.0068,0.000635 ± 0.011,0.000267 ± 0.011,0.000142 ± 0.029,
UCCUGCUACAGCUUGCUAUAGUAUUUAGUUA,0.0011 ± 0.0063,0.0317 ± 0.011,0.000316 ± 0.013,0.0075 ± 0.002,0.00221 ± 0.0054,
UCCUGGAUGUCCAUGCAUUGUAUUUAGUUA,0.00215 ± 0.0036,0.00336 ± 0.0043,0.000938 ± 0.0086,0.00235 ± 0.0042,0.000423 ± 0.015,
UCCUGCUACAGCUUGCAUAGUAUAAUGUAA,0.000948 ± 0.006,0.188 ± 0.038,0.00212 ± 0.0031,0.00248 ± 0.002,0.00034 ± 0.018,
UCCUGCUACAGCUUGCUUAGAAUUUAGUUA,0.00198 ± 0.0034,0.247 ± 0.026,0.00845 ± 0.0029,0.00357 ± 0.0018,0.000534 ± 0.012,
UCCUGGUACAGCUUCGUUAGUAUUUACAAA,0.000567 ± 0.011,0.00102 ± 0.01,0.000537 ± 0.011,0.00067 ± 0.007,0.000425 ± 0.016,
UCCUGGAUGUCCUAGCAUAGAAUUUAGUUA,0.00216 ± 0.003,0.00187 ± 0.0077,0.000974 ± 0.0059,0.00097 ± 0.0048,0.000147 ± 0.05,
UCCUGGAUGUCGAUGCAUACUAUUUAGUUA,0.00209 ± 0.0029,0.00289 ± 0.0037,0.000848 ± 0.0068,0.00161 ± 0.0027,0.000322 ± 0.017,

# Random excerpt: 2 records from the list, in no set order.
Sequence,"pre-steady-state target cleavage rate [1, 4]","pre-steady-state target cleavage rate [2, 5]","pre-steady-state target cleavage rate [2, 4]","pre-steady-state target cleavage rate [3, 6]","pre-steady-state target cleavage rate [3, 7]","pre-steady-state target cleavage rate [1, 5]"
UCCUGGAUGUGCUACCAUAGUAUUUAGUAA,0.000798 ± 0.0079,0.000992 ± 0.011,0.000609 ± 0.0084,0.00172 ± 0.0041,0.000519 ± 0.015,
UCCUGGAUCAGCUUGCUUAGUUUUUAGUUA,0.00306 ± 0.0033,0.0882 ± 0.01,0.0125 ± 0.0034,0.00518 ± 0.0042,0.000488 ± 0.016,

# (cont.)

Sequence,"pre-steady-state target cleavage rate [1, 4]","pre-steady-state target cleavage rate [2, 5]","pre-steady-state target cleavage rate [2, 4]","pre-steady-state target cleavage rate [3, 6]","pre-steady-state target cleavage rate [3, 7]","pre-steady-state target cleavage rate [1, 5]"
UCCUGGAUGAGCUUGCAUAGUUUUUACAAA,0.000802 ± 0.0084,0.00395 ± 0.0045,0.000789 ± 0.0061,0.000688 ± 0.004,0.000299 ± 0.024,
UCCUGGAACAGGAAGCAUAGUAUUUAGAAA,0.000815 ± 0.0057,0.00196 ± 0.0046,0.000532 ± 0.0064,0.000811 ± 0.0047,0.00042 ± 0.015,
UCCUGGAUGUCGAUGCAUAGUCAUUUAGUUA,0.00241 ± 0.0032,0.00277 ± 0.0044,0.00272 ± 0.0039,0.000298 ± 0.011,< 0.0001,
UCCUGGAUGAGCUUGCAUUGUAUUUACAAA,0.00105 ± 0.0064,0.00257 ± 0.0048,0.00172 ± 0.0043,0.000739 ± 0.008,0.000434 ± 0.018,
UCCUGGAUGUCCUUGCAAUCUAUUUAGUAA,0.000442 ± 0.011,0.00231 ± 0.005,0.000442 ± 0.013,0.000484 ± 0.01,0.000165 ± 0.036,
UCCUGGUACAGCUUGCAUAGUUAUUUCAAA,0.000896 ± 0.0072,0.0036 ± 0.0059,0.000272 ± 0.0098,0.000661 ± 0.0059,0.000415 ± 0.022,
UCCUGGAUGAGCUACGAUAGUAUUUAGUUA,0.00085 ± 0.0064,0.00076 ± 0.013,0.000421 ± 0.0082,0.000801 ± 0.0079,0.000442 ± 0.017,
UCCUGGAUGUGCUUGCAUGUAUUUAGUUA,0.00161 ± 0.0044,0.00298 ± 0.005,0.00149 ± 0.0053,0.00141 ± 0.006,0.000347 ± 0.027,
UCCUGGUAGUCCUUGCAUAGUAUUUACAAA,0.000911 ± 0.0064,0.00219 ± 0.0057,0.000842 ± 0.0072,0.00121 ± 0.0062,0.00041 ± 0.015,
UCCUGCAACAGCUAGCAUAGUAUUUAGUUA,,1.12 ± 0.047,0.0185 ± 0.004,0.0145 ± 0.004,0.000879 ± 0.0068,0.289 ± 0.02
UCCUGCAACAGCUUGCAUAGAAUUUAGUUA,0.00148 ± 0.0047,0.492 ± 0.048,0.0261 ± 0.0079,0.00434 ± 0.0021,0.00143 ± 0.0055,
UCCUGGAUGUCGUUCCAUAGUAUUUAGUUA,0.000371 ± 0.017,0.00174 ± 0.0066,0.000573 ± 0.012,0.000363 ± 0.0079,0.000189 ± 0.029,
UCCUGGAUGUCCUUGCUAAGUAUUUAGUUA,0.00249 ± 0.0031,0.00244 ± 0.006,0.00117 ± 0.0055,0.000334 ± 0.0093,< 0.0001,
UCCUGGAUGUGCUUGCAUAGUAUUAUGUAA,0.000518 ± 0.011,0.00267 ± 0.0055,0.000969 ± 0.0084,0.00108 ± 0.0057,0.0002 ± 0.043,
UCCUGGAUGUCGAACGAAUCUAUUUAGUUA,< 0.0001,0.00039 ± 0.016,0.00033 ± 0.016,0.000117 ± 0.023,0.0001 ± 0.051,
UCCUGGAACACGAUGCAUAGUAUUUAGAAA,0.00159 ± 0.0039,0.00367 ± 0.0045,0.00159 ± 0.0052,0.0019 ± 0.003,0.00015 ± 0.031,
UCCUGGUACAGCUUGCAUAGUAAAAAGUAA,0.00133 ± 0.0032,0.109 ± 0.031,0.00151 ± 0.0037,0.00315 ± 0.0036,0.000255 ± 0.041,
UCCUGGAACAGCUUGCAUAGUUUUAGUUA,0.00193 ± 0.0033,0.00365 ± 0.0043,0.00148 ± 0.0042,0.00165 ± 0.0024,0.000185 ± 0.045,

# Source: the supplement of paper PMC10338343
